US20260201058A1
Results are given in words; binding and its absence hold for the method and conditions named. Some entries that bind do so weakly or less than the wild type.

Chains of the proteins cited; added tags and fusions are not shown.
UniProt Q9EP73: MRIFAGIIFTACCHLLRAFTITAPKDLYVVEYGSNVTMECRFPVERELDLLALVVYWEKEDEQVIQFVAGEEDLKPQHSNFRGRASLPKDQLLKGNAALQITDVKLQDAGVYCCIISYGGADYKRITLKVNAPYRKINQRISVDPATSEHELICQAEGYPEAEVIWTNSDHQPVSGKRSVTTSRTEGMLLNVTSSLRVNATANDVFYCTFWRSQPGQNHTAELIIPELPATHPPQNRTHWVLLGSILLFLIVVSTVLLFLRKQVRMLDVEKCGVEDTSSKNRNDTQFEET

Target: mouse PD-L1 protein (ACRO, PD1-M5251) (mouse) (UniProt Q9EP73)
Experiment: Carterra chip kinetics

B1: 4A7 nanobody (VHH)
VHH: EVQLVESGGGLVQAGDSLRLGCAASGRTFSTNVMGWFRQAPGKEREFVSAISRAGSTYSADSVKGRFTISRDNAENTVYLQMNSLKPEDTAVYYCAAGSSPTAIFGKSGMDYWGKGTLVTVSS
binding: binds
